Experimental data taken from publication PMC12229022.
Read-outs that look alike come from different tables or passages of the source. Results are given in words; binding and its absence hold for the method and conditions named. Binding seen in cells or lysates may run through a third protein. A yes stands for co-enrichment or nearness to the bait. Other partners may have been found.

By UniProt entry, the sequences of proteins in these tests, tags left out.
UniProt Q96LD4: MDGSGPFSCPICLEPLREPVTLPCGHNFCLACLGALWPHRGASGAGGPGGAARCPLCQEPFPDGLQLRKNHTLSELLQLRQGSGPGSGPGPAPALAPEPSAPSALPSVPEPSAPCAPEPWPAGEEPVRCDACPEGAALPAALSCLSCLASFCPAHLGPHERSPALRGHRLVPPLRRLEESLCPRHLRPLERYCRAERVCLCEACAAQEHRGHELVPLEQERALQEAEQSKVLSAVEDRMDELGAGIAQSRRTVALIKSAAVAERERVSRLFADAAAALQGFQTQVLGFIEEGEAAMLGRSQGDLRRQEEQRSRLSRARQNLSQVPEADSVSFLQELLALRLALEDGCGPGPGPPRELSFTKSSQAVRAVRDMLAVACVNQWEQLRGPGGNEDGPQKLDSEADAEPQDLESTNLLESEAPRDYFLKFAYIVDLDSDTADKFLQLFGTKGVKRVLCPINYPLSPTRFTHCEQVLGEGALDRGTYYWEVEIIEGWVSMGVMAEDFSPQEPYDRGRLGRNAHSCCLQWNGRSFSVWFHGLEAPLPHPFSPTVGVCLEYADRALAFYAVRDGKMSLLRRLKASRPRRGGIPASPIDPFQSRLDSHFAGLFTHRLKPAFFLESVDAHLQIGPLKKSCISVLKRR
UniProt P49841: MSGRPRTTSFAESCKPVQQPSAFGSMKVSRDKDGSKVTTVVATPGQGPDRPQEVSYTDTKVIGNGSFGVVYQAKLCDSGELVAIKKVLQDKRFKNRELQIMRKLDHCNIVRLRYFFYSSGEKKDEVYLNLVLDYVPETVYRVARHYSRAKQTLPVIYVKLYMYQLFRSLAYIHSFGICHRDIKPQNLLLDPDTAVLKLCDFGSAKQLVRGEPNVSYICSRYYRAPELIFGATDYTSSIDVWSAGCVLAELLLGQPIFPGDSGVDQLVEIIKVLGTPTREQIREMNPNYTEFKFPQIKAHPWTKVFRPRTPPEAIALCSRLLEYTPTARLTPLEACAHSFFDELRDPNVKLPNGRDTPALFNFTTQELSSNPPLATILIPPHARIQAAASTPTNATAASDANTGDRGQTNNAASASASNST

Experiments:
[1] = biological target: TRIM47 immunoprecipitated for mass spectrometry (TRIM47 complex from THJ-29 T cells) (UniProt Q96LD4); assay: affinity purification with mass spectrometry; immunoprecipitate of the TRIM47 complex from THJ-29 T cells, trypsin digest, 5800 MALDI-TOF/TOF
[2] = biological target: TRIM47 immunoprecipitated for mass spectrometry (TRIM47 complex from THJ-29 T cells) (UniProt Q96LD4); assay: as above; remark: listed apart in the source

## Glycogen synthase kinase-3β (GSK-3β) (from UniProt P49841 1-420)
[1]
  binding: binds

B1: Adenosine deaminase acting on RNA (ADAR), endogenous (protein, UniProt P55265 1-1226)
chain: MNPRQGYSLSGYYTHPFQGYEHRQLRYQQPGPGSSPSSFLLKQIEFLKGQLPEAPVIGKQTPSLPPSLPGLRPRFPVLLASSTRGRQVDIRGVPRGVHLRSQGLQRGFQHPSPRGRSLPQRGVDCLSSHFQELSIYQDQEQRILKFLEELGEGKATTAHDLSGKLGTPKKEINRVLYSLAKKGKLQKEAGTPPLWKIAVSTQAWNQHSGVVRPDGHSQGAPNSDPSLEPEDRNSTSVSEDLLEPFIAVSAQAWNQHSGVVRPDSHSQGSPNSDPGLEPEDSNSTSALEDPLEFLDMAEIKEKICDYLFNVSDSSALNLAKNIGLTKARDINAVLIDMERQGDVYRQGTTPPIWHLTDKKRERMQIKRNTNSVPETAPAAIPETKRNAEFLTCNIPTSNASNNMVTTEKVENGQEPVIKLENRQEARPEPARLKPPVHYNGPSKAGYVDFENGQWATDDIPDDLNSIRAAPGEFRAIMEMPSFYSHGLPRCSPYKKLTECQLKNPISGLLEYAQFASQTCEFNMIEQSGPPHEPRFKFQVVINGREFPPAEAGSKKVAKQDAAMKAMTILLEEAKAKDSGKSEESSHYSTEKESEKTAESQTPTPSATSFFSGKSPVTTLLECMHKLGNSCEFRLLSKEGPAHEPKFQYCVAVGAQTFPSVSAPSKKVAKQMAAEEAMKALHGEATNSMASDNQPEGMISESLDNLESMMPNKVRKIGELVRYLNTNPVGGLLEYARSHGFAAEFKLVDQSGPPHEPKFVYQAKVGGRWFPAVCAHSKKQGKQEAADAALRVLIGENEKAERMGFTEVTPVTGASLRRTMLLLSRSPEAQPKTLPLTGSTFHDQIAMLSHRCFNTLTNSFQPSLLGRKILAAIIMKKDSEDMGVVVSLGTGNRCVKGDSLSLKGETVNDCHAEIISRRGFIRFLYSELMKYNSQTAKDSIFEPAKGGEKLQIKKTVSFHLYISTAPCGDGALFDKSCSDRAMESTESRHYPVFENPKQGKLRTKVENGEGTIPVESSDIVPTWDGIRLGERLRTMSCSDKILRWNVLGLQGALLTHFLQPIYLKSVTLGYLFSQGHLTRAICCRVTRDGSAFEDGLRHPFIVNHPKVGRVSIYDSKRQSGKTKETSVNWCLADGYDLEILDGTRGTVDGPRNELSRVSKKNIFLLFKKLCSFRYRRDLLRLSYGEAKKAARDYETAKNYFKKGLKDMGYGNWISKPQEEKNFYLCPV
[2]
  binding: binds
